According to paper PMC11803820:
For at least one entry, the source does not settle the construct or the ends of the probe. For some assays here: No signal at the amounts used counts as a negative.

Assays:
[1] = molecular target: alpha-synuclein monomer (UniProt P37840); assay: SPR; conditions: up to 5 uM monomer; SPR: HBS-P, 10 mM HEPES, 150 mM NaCl, 0.002% P20; 200 RU DNA immobilized, single cycle, regeneration with 5 M NaCl; pH and temperature not stated; recombinant protein
[2] = molecular target: alpha-synuclein amyloid fibrils (sonicated for SPR) (UniProt P37840); assay: SPR; conditions: apparent Kd in monomer units, 1:1 model, average of 3 experiments; SPR: HBS-P, 10 mM HEPES, 150 mM NaCl, 0.002% P20; 200 RU DNA immobilized, single cycle, regeneration with 5 M NaCl; pH and temperature not stated; recombinant protein

CGATTCAGTAGCAGACAGCTAGCTAGAGAGCTCATCATGTCCAGATCTCC (double strand) [50-bp dsDNA]
binding result [1]: no binding
Kd [2]: 4 µM
